Measured values: patent US5716964A, “Tetrazolyl substituted imidazo[1,2-a]pyridinylalkyl compounds for treatment of neurotoxic injury” (G.D. Searle & Co., priority 1995, dated 1998)
At least one read-out could not be matched to a standard name with certainty.

Molecular target: KA (kainate) receptor
Test: [3H]kainate binding assay
Details: [3H]kainate 0.5 nM, SPM, 0-4 °C, 60 min

Structure (SMILES) | Ki IC50 Binding, KA [µM]
O=C(O)c1cn2c(CP(=O)(O)O)cccc2n1 [Example 7, 5-(phosphonomethyl)imidazo[1,2-a]pyridine-2-carboxylic acid] | 123
Cc1c(C(=O)O)nc2c(CP(=O)(O)O)cccn12.Cl [Example 67, 3-methyl-8-(phosphonomethyl)imidazo[1,2-a]pyridine-2-carboxylic acid, monohydrochloride] | > 300
